Measured values reported in publication PMC9815587, “The structure of the human LACTB filament reveals the mechanisms of assembly and membrane binding” (PLOS Biology, 2022).
Results are given in words; binding and its absence hold for the method and conditions named.

Experiments:
[1] = target: human LACTB (residues 97 to 547) E149R-N150A double mutant (human) (UniProt P83111); test: SEC; Superose 6 Increase 10/300 GL; 20 mM HEPES-NaOH (pH 7.5), 140 mM NaCl, 10 mM KCl, 1 mM MgCl2, 1 mM DTT; self-assembly, filaments elute within the void volume; both purified
[2] = target: human LACTB (residues 97 to 547) E149R-N150A double mutant (human) (UniProt P83111); test: negative-stain TEM; SEC peak fractions diluted to approximately 2.0 μm (so in the source), 0.75% uranyl formate, Tecnai T12 at 100 kV; self-assembly into filaments; both purified
[3] = target: human LACTB (residues 97 to 547) I368A-N370A-R371E triple mutant (human) (UniProt P83111); test: SEC; Superose 6 Increase 10/300 GL; 20 mM HEPES-NaOH (pH 7.5), 140 mM NaCl, 10 mM KCl, 1 mM MgCl2, 1 mM DTT; self-assembly, filaments elute within the void volume; both purified
[4] = target: human LACTB (residues 97 to 547) I368A-N370A-R371E triple mutant (human) (UniProt P83111); test: negative-stain TEM; SEC peak fractions diluted to approximately 2.0 μm (so in the source), 0.75% uranyl formate, Tecnai T12 at 100 kV; self-assembly into filaments; both purified

| binding [1] | binding [3] | Binder | binding [2] | binding [4] |
| --- | --- | --- | --- | --- |
| no binding | – | human LACTB (residues 97 to 547) E149R-N150A double mutant (enzyme, UniProt P83111 97-547) APPCSRCFARAIESSRDLLHRIKDEVGAPGIVVGVSVDGKEVWSEGLGYADVRARVPCKPETVMRIASISKSLTMVALAKLWEAGKLDLDIPVQHYVPEFPEKEYEGEKVSVTTRLLISHLSGIRHYEKDIKKVKEEKAYKALKMMKENVAFEQEKEGKSNEKNDFTKFKTEQENEAKCRNSKPGKKKNDFEQGELYLREKFENSIESLRLFKNDPLFFKPGSQFLYSTFGYTLLAAIVERASGCKYLDYMQKIFHDLDMLTTVQEENEPVIYNRARFYVYNKKKRLVNTPYVDNSYKWAGGGFLSTVGDLLKFGNAMLYGYQVGLFKNSNENLLPGYLKPETMVMMWTPVPNTEMSWDKEGKYAMAWGVVERKQTYGSCRKQRHYASHTGGAVGASSVLLVLPEELDTETINNKVPPRGIIVSIICNMQSVGLNSTALKIALEFDKDRSD | no binding (tested: approximately 2.0 μm (so in the source)) | – |
| – | no binding | human LACTB (residues 97 to 547) I368A-N370A-R371E triple mutant (enzyme, UniProt P83111 97-547) APPCSRCFARAIESSRDLLHRIKDEVGAPGIVVGVSVDGKEVWSEGLGYADVENRVPCKPETVMRIASISKSLTMVALAKLWEAGKLDLDIPVQHYVPEFPEKEYEGEKVSVTTRLLISHLSGIRHYEKDIKKVKEEKAYKALKMMKENVAFEQEKEGKSNEKNDFTKFKTEQENEAKCRNSKPGKKKNDFEQGELYLREKFENSIESLRLFKNDPLFFKPGSQFLYSTFGYTLLAAIVERASGCKYLDYMQKIFHDLDMLTTVQEENEPVAYAEARFYVYNKKKRLVNTPYVDNSYKWAGGGFLSTVGDLLKFGNAMLYGYQVGLFKNSNENLLPGYLKPETMVMMWTPVPNTEMSWDKEGKYAMAWGVVERKQTYGSCRKQRHYASHTGGAVGASSVLLVLPEELDTETINNKVPPRGIIVSIICNMQSVGLNSTALKIALEFDKDRSD | – | no binding (tested: approximately 2.0 μm (so in the source)) |
